PubChem BioAssay AID1224830 – NIAID, 2016
Assay: 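Host factors that control LPS-induced TNF expression in human macrophages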 (primary screen). Cells: human THP-1 monocytic leukaemia cells, TNF dual-luciferase reporter clone, PMA-differentiated to macrophage-like cells. Reagent: siRNA pool against human genes, 50 nM. Time to read-out: LPS for 4 h, given about 3 days after siRNA transfection. Treatment: bacterial LPS (TLR4 ligand), 10 ng/ml. Measured: 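TNF firefly reporter luminescence divided by renilla, normalised to the plate median, then turned into a robust z-score for each replicate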. Reading the numbers: TNF reporter robust z-score: higher = stronger TNF reporter response to LPS. Rule for the call: 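a well is active when its z-score exceeds 2.8 or falls below -1.5; control wells carry no call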.
This is one part, drawn at random, of about 18,000 reagents tested. Of all reagents, about 2,900 (16%) got an active call. 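Calls are made per well; low scores hint the gene aids the LPS response, high scores that it dampens it.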 Unmarked entries are inactive. Repeated entries: four replicate wells of each siRNA pool.

| Target gene | TNF reporter robust z-score |
| --- | --- |
| CALHM6 (GeneID 441168) | 0.53 |
| CALHM6 (GeneID 441168) | 1.25 |
| CALHM6 (GeneID 441168) | 0.18 |
| CALHM6 (GeneID 441168) | 1.97 |
| ALKBH8 (GeneID 91801) | 0.11 |
| ALKBH8 (GeneID 91801) | -0.09 |
| ALKBH8 (GeneID 91801) | -0.52 |
| ALKBH8 (GeneID 91801) | 0.53 |
| ITGA2 (GeneID 3673) | -0.09 |
| ITGA2 (GeneID 3673) | 0.78 |
| ITGA2 (GeneID 3673) | -0.11 |
| ITGA2 (GeneID 3673) | 0.68 |
| DDO (GeneID 8528) | 1.44 |
| DDO (GeneID 8528) | 1.68 |
| DDO (GeneID 8528) | 1.64 |
| DDO (GeneID 8528) | 3.41 (active) |
| BIN2 (GeneID 51411) | 0.72 |
| BIN2 (GeneID 51411) | 0.86 |
| BIN2 (GeneID 51411) | -0.83 |
| BIN2 (GeneID 51411) | -0.49 |
| SPMIP2 (GeneID 152940) | -0.9 |
| SPMIP2 (GeneID 152940) | -0.5 |
| SPMIP2 (GeneID 152940) | -0.35 |
| SPMIP2 (GeneID 152940) | 0.24 |
| LIPN (GeneID 643418) | -0.47 |
| LIPN (GeneID 643418) | -0.31 |
| LIPN (GeneID 643418) | -0.55 |
| LIPN (GeneID 643418) | -0.37 |
| FOXQ1 (GeneID 94234) | 0.2 |
| FOXQ1 (GeneID 94234) | 0.18 |
| FOXQ1 (GeneID 94234) | -0.81 |
| FOXQ1 (GeneID 94234) | 0.62 |
| TMEM43 (GeneID 79188) | 1.56 |
| TMEM43 (GeneID 79188) | 1.62 |
| TMEM43 (GeneID 79188) | 1 |
| TMEM43 (GeneID 79188) | 0.45 |
| CLTC (GeneID 1213) | -0.83 |
| CLTC (GeneID 1213) | -0.77 |
| CLTC (GeneID 1213) | -0.89 |
| CLTC (GeneID 1213) | -0.09 |
| IFRD1 (GeneID 3475) | 2.26 |
| IFRD1 (GeneID 3475) | 1.91 |
| IFRD1 (GeneID 3475) | 2.14 |
| IFRD1 (GeneID 3475) | 4.62 (active) |
| LONP1 (GeneID 9361) | 0.12 |
| LONP1 (GeneID 9361) | -0.17 |
| LONP1 (GeneID 9361) | 0.33 |
| LONP1 (GeneID 9361) | 0.31 |
| PAK2 (GeneID 5062) | -0.13 |
| PAK2 (GeneID 5062) | 0.02 |
| PAK2 (GeneID 5062) | 0.19 |
| PAK2 (GeneID 5062) | 0.42 |
| FEZ1 (GeneID 9638) | 3.07 (active) |
| FEZ1 (GeneID 9638) | 4.21 (active) |
| FEZ1 (GeneID 9638) | 4.52 (active) |
| FEZ1 (GeneID 9638) | 0.47 |
| PRMT7 (GeneID 54496) | 0.5 |
| PRMT7 (GeneID 54496) | 0.61 |
| PRMT7 (GeneID 54496) | 0.89 |
| PRMT7 (GeneID 54496) | 1.4 |
| ZBTB41 (GeneID 360023) | 1.71 |
| ZBTB41 (GeneID 360023) | 2.21 |
| ZBTB41 (GeneID 360023) | 0.7 |
| ZBTB41 (GeneID 360023) | 1.13 |
| KIF20A (GeneID 10112) | 0.25 |
| KIF20A (GeneID 10112) | 0.12 |
| KIF20A (GeneID 10112) | 0.67 |
| TCERG1 (GeneID 10915) | -0.72 |
| TCERG1 (GeneID 10915) | 1.03 |
| TCERG1 (GeneID 10915) | 0.24 |
| TCERG1 (GeneID 10915) | 0.7 |
| MMP27 (GeneID 64066) | 1.41 |
| MMP27 (GeneID 64066) | -0.69 |
| MMP27 (GeneID 64066) | 2.05 |
| MMP27 (GeneID 64066) | -0.54 |
| RASGEF1C (GeneID 255426) | 0.16 |
| RASGEF1C (GeneID 255426) | 0.46 |
| RASGEF1C (GeneID 255426) | -1.16 |
| RASGEF1C (GeneID 255426) | -0.31 |
| PWWP3A (GeneID 84939) | 0.93 |
| PWWP3A (GeneID 84939) | 0.99 |
| PWWP3A (GeneID 84939) | 0.17 |
| PWWP3A (GeneID 84939) | 1.92 |
| COL11A2 (GeneID 1302) | 1.52 |
| COL11A2 (GeneID 1302) | 1.05 |
| COL11A2 (GeneID 1302) | -0.77 |
| COL11A2 (GeneID 1302) | 1.04 |
| TTYH3 (GeneID 80727) | -0.09 |
| TTYH3 (GeneID 80727) | 0.5 |
| TTYH3 (GeneID 80727) | -1.06 |
| TTYH3 (GeneID 80727) | -1.11 |

The list goes on; the last 16 above are carried over.
| Target gene | TNF reporter robust z-score |
| --- | --- |
| RASGEF1C (GeneID 255426) | 0.16 |
| RASGEF1C (GeneID 255426) | 0.46 |
| RASGEF1C (GeneID 255426) | -1.16 |
| RASGEF1C (GeneID 255426) | -0.31 |
| PWWP3A (GeneID 84939) | 0.93 |
| PWWP3A (GeneID 84939) | 0.99 |
| PWWP3A (GeneID 84939) | 0.17 |
| PWWP3A (GeneID 84939) | 1.92 |
| COL11A2 (GeneID 1302) | 1.52 |
| COL11A2 (GeneID 1302) | 1.05 |
| COL11A2 (GeneID 1302) | -0.77 |
| COL11A2 (GeneID 1302) | 1.04 |
| TTYH3 (GeneID 80727) | -0.09 |
| TTYH3 (GeneID 80727) | 0.5 |
| TTYH3 (GeneID 80727) | -1.06 |
| TTYH3 (GeneID 80727) | -1.11 |
| LY6G6D (GeneID 58530) | -0.64 |
| LY6G6D (GeneID 58530) | -0.1 |
| LY6G6D (GeneID 58530) | -0.06 |
| LY6G6D (GeneID 58530) | -1.63 (active) |
| RNF41 (GeneID 10193) | -1.57 (active) |
| RNF41 (GeneID 10193) | 0.06 |
| RNF41 (GeneID 10193) | 1.26 |
| RNF41 (GeneID 10193) | 2.37 |
| AKNA (GeneID 80709) | -0.3 |
| AKNA (GeneID 80709) | -0.04 |
| AKNA (GeneID 80709) | 0.26 |
| AKNA (GeneID 80709) | -0.24 |
| IL21R (GeneID 50615) | -1.07 |
| IL21R (GeneID 50615) | -1.08 |
| IL21R (GeneID 50615) | -0.97 |
| IL21R (GeneID 50615) | -0.39 |
| SLC46A3 (GeneID 283537) | -0.81 |
| SLC46A3 (GeneID 283537) | 0.13 |
| SLC46A3 (GeneID 283537) | -0.42 |
| SLC46A3 (GeneID 283537) | 1.37 |
| GSE1 (GeneID 23199) | -0.03 |
| GSE1 (GeneID 23199) | -0.36 |
| GSE1 (GeneID 23199) | 0.12 |
| GSE1 (GeneID 23199) | -0.51 |
| VWA3B (GeneID 200403) | 0.21 |
| VWA3B (GeneID 200403) | 0.48 |
| VWA3B (GeneID 200403) | 0.69 |
| VWA3B (GeneID 200403) | 0.94 |
| SGSH (GeneID 6448) | -0.11 |
| SGSH (GeneID 6448) | -0.05 |
| SGSH (GeneID 6448) | -0.24 |
| SGSH (GeneID 6448) | 0.37 |
| HOXA4 (GeneID 3201) | 1.18 |
| HOXA4 (GeneID 3201) | 1.12 |
| HOXA4 (GeneID 3201) | 0.7 |
| HOXA4 (GeneID 3201) | 0.39 |
| IGFL2 (GeneID 147920) | 2.48 |
| IGFL2 (GeneID 147920) | 1.36 |
| IGFL2 (GeneID 147920) | 1.78 |
| IGFL2 (GeneID 147920) | 1.73 |
| RFPL1 (GeneID 5988) | 2.06 |
| RFPL1 (GeneID 5988) | -0.91 |
| RFPL1 (GeneID 5988) | -0.96 |
| RFPL1 (GeneID 5988) | 1.53 |
| FAM178B (GeneID 51252) | -1.05 |
| FAM178B (GeneID 51252) | 0.5 |
| FAM178B (GeneID 51252) | -0.25 |
| FAM178B (GeneID 51252) | 0.95 |
| DNASE1L3 (GeneID 1776) | -1.06 |
| DNASE1L3 (GeneID 1776) | -1.22 |
| DNASE1L3 (GeneID 1776) | -0.76 |
| DNASE1L3 (GeneID 1776) | -0.91 |
